Assay results published in article PMC3224144.
Results are given in words; binding and its absence hold for the method and conditions named. Some entries that bind do so weakly or less than the wild type.

Protein sequences, listed by entry. Tags and fused reporters are not part of them.
UniProt P03734: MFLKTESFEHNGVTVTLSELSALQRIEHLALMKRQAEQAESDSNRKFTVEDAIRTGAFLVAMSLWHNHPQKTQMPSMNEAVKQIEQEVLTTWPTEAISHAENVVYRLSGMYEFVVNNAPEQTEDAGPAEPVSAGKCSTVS
UniProt P03740: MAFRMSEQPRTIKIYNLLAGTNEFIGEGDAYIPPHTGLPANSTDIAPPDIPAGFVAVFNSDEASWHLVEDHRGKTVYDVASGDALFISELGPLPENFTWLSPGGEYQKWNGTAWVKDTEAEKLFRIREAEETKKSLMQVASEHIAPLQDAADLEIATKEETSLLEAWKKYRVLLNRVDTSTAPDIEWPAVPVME
UniProt P03729: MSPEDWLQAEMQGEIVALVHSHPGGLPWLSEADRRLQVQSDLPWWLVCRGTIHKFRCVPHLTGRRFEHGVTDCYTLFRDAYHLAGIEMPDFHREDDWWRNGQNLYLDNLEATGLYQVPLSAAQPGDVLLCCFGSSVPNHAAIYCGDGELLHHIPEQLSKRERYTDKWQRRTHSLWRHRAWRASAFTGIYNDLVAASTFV
UniProt Q37935: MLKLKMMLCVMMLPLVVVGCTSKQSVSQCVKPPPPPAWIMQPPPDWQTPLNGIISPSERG
UniProt P03768: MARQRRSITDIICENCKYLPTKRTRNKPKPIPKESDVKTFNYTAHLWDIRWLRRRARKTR
UniProt P03769: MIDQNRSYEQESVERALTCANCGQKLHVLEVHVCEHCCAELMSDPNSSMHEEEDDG

Tests used:
Test in all cases: two-hybrid; array-based yeast two-hybrid screens; each protein as bait (Gal4 DNA-binding domain) and as prey (Gal4 activation domain), N- and C-terminal fusions; bait-prey vector pairs pDEST32-pDEST22, pGBKT7g-pGADT7g, pGBKT7g-pGADCg, pGBKCg-pGADCg, pGBKCg-pGADT7g; ten configurations a pair; positives retested
[1] = molecular target: T1, Integrase (Int) (bacteriophage lambda) (UniProt P03700)
T1 sequence: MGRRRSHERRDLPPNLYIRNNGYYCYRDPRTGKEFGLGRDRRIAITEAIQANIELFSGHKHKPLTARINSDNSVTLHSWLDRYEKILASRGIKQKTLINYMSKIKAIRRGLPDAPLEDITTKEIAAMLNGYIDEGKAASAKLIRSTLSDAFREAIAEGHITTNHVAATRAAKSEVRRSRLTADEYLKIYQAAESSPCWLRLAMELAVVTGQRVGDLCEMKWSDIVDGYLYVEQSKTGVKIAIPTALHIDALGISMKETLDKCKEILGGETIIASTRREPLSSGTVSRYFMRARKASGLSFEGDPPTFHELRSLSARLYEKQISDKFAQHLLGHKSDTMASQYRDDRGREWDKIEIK

[2] = molecular target: T2, Nu1 (bacteriophage lambda) (UniProt P03707)
T2 sequence: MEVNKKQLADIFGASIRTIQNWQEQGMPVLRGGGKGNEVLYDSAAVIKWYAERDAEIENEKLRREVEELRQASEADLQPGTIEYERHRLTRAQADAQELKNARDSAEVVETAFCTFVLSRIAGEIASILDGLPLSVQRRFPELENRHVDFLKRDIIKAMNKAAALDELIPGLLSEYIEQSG

[3] = molecular target: T3, NinD (bacteriophage lambda) (UniProt P03767)
T3 sequence: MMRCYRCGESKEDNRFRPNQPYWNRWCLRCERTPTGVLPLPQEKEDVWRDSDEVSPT

[4] = molecular target: T4, M (bacteriophage lambda) (UniProt P03737)
T4 sequence: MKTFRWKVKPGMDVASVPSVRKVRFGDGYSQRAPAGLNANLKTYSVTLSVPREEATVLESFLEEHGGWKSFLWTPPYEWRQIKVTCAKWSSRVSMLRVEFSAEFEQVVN

[5] = molecular target: T5, U (bacteriophage lambda) (UniProt P03732)
T5 sequence: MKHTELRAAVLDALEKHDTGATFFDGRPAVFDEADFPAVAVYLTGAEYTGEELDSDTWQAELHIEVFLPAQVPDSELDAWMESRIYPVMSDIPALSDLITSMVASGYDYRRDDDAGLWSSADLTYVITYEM

[6] = molecular target: T6, DNA packaging protein A (bacteriophage lambda) (UniProt P03708)
T6 sequence: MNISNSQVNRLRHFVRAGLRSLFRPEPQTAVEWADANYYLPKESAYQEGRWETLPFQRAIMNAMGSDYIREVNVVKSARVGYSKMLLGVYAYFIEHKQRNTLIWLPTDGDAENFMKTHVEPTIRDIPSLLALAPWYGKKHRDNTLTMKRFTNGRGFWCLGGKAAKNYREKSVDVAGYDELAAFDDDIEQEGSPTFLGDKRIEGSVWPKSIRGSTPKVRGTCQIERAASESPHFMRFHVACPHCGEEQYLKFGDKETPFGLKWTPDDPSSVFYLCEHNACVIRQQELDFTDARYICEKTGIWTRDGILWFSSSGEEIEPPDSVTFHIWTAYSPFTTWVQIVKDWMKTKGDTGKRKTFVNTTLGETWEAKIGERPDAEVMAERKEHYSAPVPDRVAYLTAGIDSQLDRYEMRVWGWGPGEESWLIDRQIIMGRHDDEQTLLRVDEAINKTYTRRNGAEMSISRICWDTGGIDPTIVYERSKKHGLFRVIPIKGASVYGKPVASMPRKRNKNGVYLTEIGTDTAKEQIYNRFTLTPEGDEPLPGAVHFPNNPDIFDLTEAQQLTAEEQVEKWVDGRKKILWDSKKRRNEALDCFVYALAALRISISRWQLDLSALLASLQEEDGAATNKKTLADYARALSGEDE

[7] = molecular target: T7, antiterminator N (bacteriophage lambda) (UniProt P03045)
T7 sequence: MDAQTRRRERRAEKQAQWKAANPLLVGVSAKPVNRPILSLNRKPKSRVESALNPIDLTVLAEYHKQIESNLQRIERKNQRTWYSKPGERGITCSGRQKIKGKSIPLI

[8] = molecular target: G, a tail protein (bacteriophage lambda) (UniProt P03734)

## tail fiber protein Tfa (from UniProt P03740 1-194)
[1]
  binding: binds
[2]
  binding: binds

## K (from UniProt P03729 1-199)
[3]
  binding: binds

## Rz1 (from UniProt Q37935 1-60)
[4]
  binding: binds

## NinE (from UniProt P03768 1-60)
[5]
  binding: binds

## NinF (from UniProt P03769 1-56)
[6]
  binding: binds
[4]
  binding: binds
[5]
  binding: binds

B1: U (protein, UniProt P03732 1-131)
chain: MKHTELRAAVLDALEKHDTGATFFDGRPAVFDEADFPAVAVYLTGAEYTGEELDSDTWQAELHIEVFLPAQVPDSELDAWMESRIYPVMSDIPALSDLITSMVASGYDYRRDDDAGLWSSADLTYVITYEM
[5]
  binding: binds weakly

B2: Cro (protein, UniProt P03040 1-66)
chain: MEQRITLKDYAMRFGQTKTAKDLGVYQSAINKAIHAGRKIFLTINADGSVYAEEVKPFPSNKKTTA
[3]
  binding: binds

B3: Nu1 (protein, UniProt P03707 1-181)
chain: MEVNKKQLADIFGASIRTIQNWQEQGMPVLRGGGKGNEVLYDSAAVIKWYAERDAEIENEKLRREVEELRQASEADLQPGTIEYERHRLTRAQADAQELKNARDSAEVVETAFCTFVLSRIAGEIASILDGLPLSVQRRFPELENRHVDFLKRDIIKAMNKAAALDELIPGLLSEYIEQSG
[6]
  binding: binds
[2]
  binding: binds
[7]
  binding: binds

B4: NinB (protein, UniProt P03765 1-146)
chain: MKKLTFEIRSPAHQQNAIHAVQQILPDPTKPIVVTIQERNRSLDQNRKLWACLGDVSRQVEWHGRWLDAESWKCVFTAALKQQDVVPNLAGNGFVVIGQSTSRMRVGEFAELLELIQAFGTERGVKWSDEARLALEWKARWGDRAA
[5]
  binding: binds

B5: Integrase (Int) (protein, UniProt P03700 1-356)
chain: MGRRRSHERRDLPPNLYIRNNGYYCYRDPRTGKEFGLGRDRRIAITEAIQANIELFSGHKHKPLTARINSDNSVTLHSWLDRYEKILASRGIKQKTLINYMSKIKAIRRGLPDAPLEDITTKEIAAMLNGYIDEGKAASAKLIRSTLSDAFREAIAEGHITTNHVAATRAAKSEVRRSRLTADEYLKIYQAAESSPCWLRLAMELAVVTGQRVGDLCEMKWSDIVDGYLYVEQSKTGVKIAIPTALHIDALGISMKETLDKCKEILGGETIIASTRREPLSSGTVSRYFMRARKASGLSFEGDPPTFHELRSLSARLYEKQISDKFAQHLLGHKSDTMASQYRDDRGREWDKIEIK
[1]
  binding: binds

B6: R (protein, UniProt P03706 1-158)
chain: MVEINNQRKAFLDMLAWSEGTDNGRQKTRNHGYDVIVGGELFTDYSDHPRKLVTLNPKLKSTGAGRYQLLSRWWDAYRKQLGLKDFSPKSQDAVALQQIKERGALPMIDRGDIRQAIDRCSNIWASLPGAGYGQFEHKADSLIAKFKEAGGTVREIDV
[2]
  binding: binds

B7: excisionase (Xis) (protein, UniProt P03699 1-72)
chain: MYLTLQEWNARQRRPRSLETVRRWVRECRIFPPPVKDGREYLFHESAVKVDLNRPVTGGLLKRIRNGKKAKS
[5]
  binding: binds

B8: L (protein, UniProt P03738 1-232)
chain: MQDIRQETLNECTRAEQSASVVLWEIDLTEVGGERYFFCNEQNEKGEPVTWQGRQYQPYPIQGSGFELNGKGTSTRPTLTVSNLYGMVTGMAEDMQSLVGGTVVRRKVYARFLDAVNFVNGNSYADPEQEVISRWRIEQCSELSAVSASFVLSTPTETDGAVFPGRIMLANTCTWTYRGDECGYSGPAVADEYDQPTSDITKDKCSKCLSGCKFRNNVGNFGGFLSINKLSQ
[7]
  binding: binds

B9: tape measure protein H (protein, UniProt P03736 1-853)
chain: MAEPVGDLVVDLSLDAARFDEQMARVRRHFSGTESDAKKTAAVVEQSLSRQALAAQKAGISVGQYKAAMRMLPAQFTDVATQLAGGQSPWLILLQQGGQVKDSFGGMIPMFRGLAGAITLPMVGATSLAVATGALAYAWYQGNSTLSDFNKTLVLSGNQAGLTADRMLVLSRAGQAAGLTFNQTSESLSALVKAGVSGEAQIASISQSVARFSSASGVEVDKVAEAFGKLTTDPTSGLTAMARQFHNVSAEQIAYVAQLQRSGDEAGALQAANEAATKGFDDQTRRLKENMGTLETWADRTARAFKSMWDAVLDIGRPDTAQEMLIKAEAAYKKADDIWNLRKDDYFVNDEARARYWDDREKARLALEAARKKAEQQTQQDKNAQQQSDTEASRLKYTEEAQKAYERLQTPLEKYTARQEELNKALKDGKILQADYNTLMAAAKKDYEATLKKPKQSSVKVSAGDRQEDSAHAALLTLQAELRTLEKHAGANEKISQQRRDLWKAESQFAVLEEAAQRRQLSAQEKSLLAHKDETLEYKRQLAALGDKVTYQERLNALAQQADKFAQQQRAKRAAIDAKSRGLTDRQAEREATEQRLKEQYGDNPLALNNVMSEQKKTWAAEDQLRGNWMAGLKSGWSEWEESATDSMSQVKSAATQTFDGIAQNMAAMLTGSEQNWRSFTRSVLSMMTEILLKQAMVGIVGSIGSAIGGAVGGGASASGGTAIQAAAAKFHFATGGFTGTGGKYEPAGIVHRGEFVFTKEATSRIGVGNLYRLMRGYATGGYVGTPGSMADSRSQASGTFEQNNHVVINNDGTNGQIGPAALKAVYDMARKGARDEIQTQMRDGGLFSGGGR
[8]
  binding: binds
